Experimental data published in PubChem BioAssay AID493014 (National Center for Advancing Translational Sciences (NCATS), 2011).
Screen size: about 340,000 compounds; about 170 (0.05%) were called active. Inconclusive means that the source gave no clear call. Such entries were picked first, then a sample of the others. The call rests on the fitted dose curve; in most records, active means well fitted inhibition curve with a large enough effect in the signal ratio, with a control signal flat (not every such curve was filed as active); inconclusive means small, poorly fitted or top-dose-only effect, or effect the other way, or a change in a side signal; inactive means flat fitted curve, though single readings scatter; the % refers to the signal ratio. Potencies of inconclusive entries are doubtful fits and often do not repeat.

experiment: qHTS Assay to Find Inhibitors of Chronic Active B-Cell Receptor Signaling; settings: ABC-DLBCL IkBa-CBG/CBR reporter, luminescence ratio (green luciferase fused to IkBa over red control in TMD8 lymphoma cells), 4 h; activity change, negative = inhibition: at 46.1 µM (top of the series) unless noted;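 on activity change, negative = inhibition: plate controls were basal doxycycline-induced cells for no effect and cells given 10 µM MG132 for full effect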
Procedure, shortened: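 Cell line TMD8 (human ABC DLBCL), stably expressing tet-inducible CBG68-IkBa fusion and CBR; IMDM/0.5% FBS; cpd up to 46 uM; dox induction, 4 h, 37C/5% CO2; dual luminescence; green/red ratio; MG132 control.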
Potency means the concentration at half of the fitted maximal effect.

SMILES | activity change, negative = inhibition | Potency
Cc1noc(C)c1CSc1ccccc1C(=O)N1CCN(c2ccccc2)CC1 | inactive: 13.9% | 
Cc1cccc(-c2nc(CN3CCCC(C(=O)NC4CCCCCC4)C3)c(C)o2)c1 (centres undefined) |  | inconclusive: 12.6 µM [rising, partial curve, poor fit]
C/C(=N\NS(=O)(=O)c1ccc(C)c([N+](=O)[O-])c1)c1cc2ccccc2o1 |  | inconclusive: 7.31 µM [falling, partial curve, poor fit]
O=C(NCC1CCCO1)c1cc2ccccc2nc1Cl (centres undefined) | inactive: -3.71% | 
O=C1CC[C@H](N2C(=O)c3ccccc3C2=O)C(=O)N1 | inconclusive: 14.6% | 
Cc1cc2ccccc2c(=O)n1CC(=O)NCC(=O)N1CCCC(C)C1 (centres undefined) | inconclusive: 4.42% | 
CCc1ccc(NC(=O)CN2C(=O)C(=O)N(Cc3ccccc3)C2=O)cc1 | inconclusive: 4.18% | 
Cc1ccc(C(=O)OCC(=O)NNC(=O)c2ccc([N+](=O)[O-])cc2)o1 | inactive: -3.1% | 
O=C(NNC(=S)NCc1ccco1)c1ccccc1Br | inactive: 2.32% | 
Cc1noc(C)c1COc1cccc(C(=O)NCCc2c[nH]c3ccccc23)c1 |  | inconclusive: 3.55 µM [falling, full curve]
O=C(Nc1ccc(F)c(Cl)c1)c1cc(-c2ccco2)on1 |  | inconclusive: 20 µM [falling, partial curve]
Cc1nsc(Nc2ccc([N+](=O)[O-])cc2)c1C#N |  | inconclusive: 20 µM [rising, single point]
COc1ccccc1C(=O)Nc1ccc2c(c1)OCCO2 |  | inconclusive: 25.1 µM [falling, single point]
COc1ccc2[nH]c(C)c(C(=O)CN3CCN(C(=O)c4ccco4)CC3)c2c1 | inconclusive: -2.81% | 
Cc1c(O)ccc(/C=N/Nc2ncccc2[N+](=O)[O-])c1O | inactive: -0.115% | 
CCc1cccc2[nH]c3cc([N+](=O)[O-])ccc3c12 |  | inconclusive: 14.1 µM [rising, partial curve, poor fit]
COc1ccc(C)cc1S(=O)(=O)N1CCN(C(=O)c2ncoc2-c2ccc(C)cc2)CC1 | inactive: -0.0493% | 
O=c1[nH]c2cc3c(cc2cc1CN(CCO)S(=O)(=O)c1ccccc1)OCCO3 | inconclusive: -2.7% | 
Cc1noc(C)c1NC(=O)N(C)C[C@H]1Oc2ccc(NC(=O)Nc3ccc4c(c3)OCO4)cc2C(=O)N([C@H](C)CO)C[C@@H]1C | inconclusive: 2.38% | 
O=C(Cc1ccccc1)Nc1nnc(SCC(=O)NC2CCCC2)s1 | inconclusive: 6.17% | 
Cc1nc(SCC(=O)NCc2ccco2)c2c(C)c(C)sc2n1 | inconclusive: 0.577% | 
Cc1cc(C2=NNC(=NCc3ccccc3)SC2)c(C)n1-c1c(C)n(C)n(-c2ccccc2)c1=O | inconclusive: 17.7% | 
CCOC(=O)/C(=C/C=C1\Sc2cc(OCC)c(OCC)cc2N1CC)C(C)=O | inactive: -0.661% | 
CC(C)(C)c1ccc(C(=O)Nc2sc3c(c2C(=O)O)CCC3)cc1 | inconclusive: 18.2% | 
O=C(Nc1nnc(-c2ccccc2F)s1)c1cccnc1 |  | inconclusive: 2.24 µM [falling, full curve]

SMILES | activity change, negative = inhibition | Potency
COc1ccc(NC(=S)NCc2cccs2)cc1 |  | inconclusive: 35.5 µM [falling, single point]
COc1ccc(-c2csc(N(CCc3ccccc3)C(=O)COc3ccccc3)n2)cc1 | inconclusive: 10.8% | 
O=C(c1cc(COc2c(F)cccc2F)on1)N1CCc2ccccc2C1 | inconclusive: 0.501% | 
COc1ccc(CC(=O)N2CCN=C2SCc2cccc([N+](=O)[O-])c2)cc1 |  | inconclusive: 11.2 µM [falling, partial curve]
CCN(c1ccccc1)S(=O)(=O)c1ccc(OC)c(NC(=O)c2ccc(=O)[nH]c2)c1 | inactive: 0.106% | 
CCOC(=O)N1CC=C2C(C#N)=C(N)C(C#N)(C#N)[C@H](c3ccccc3OCC)[C@H]2C1 | inactive: -2.15% | 
FC(F)Oc1ccccc1NC(=S)NCc1ccco1 | inconclusive: 11.4% | 
Cc1nc2scc(-c3ccco3)c2c(=O)n1/N=C/N(C)C | inconclusive: 1.16% | 
O=C(Nc1ccccc1C(=O)NC1CCCC1)NC1CCCC1 | inconclusive: 4.51% | 
CC(C)C(=O)NNC(=O)CSc1ncnc2c1cnn2-c1ccccc1Cl | inconclusive: -11.4% | 
Cc1cccc(NC(=O)c2ccc([N+](=O)[O-])o2)c1C | inactive: 17.1% | 
Cc1ccc(C(=O)NC(=S)Nc2ccc3c(c2)OCCO3)c(C)c1 |  | inconclusive: 22.4 µM [falling, single point]
CCc1cc(C(=O)NNC(=S)NC2CCCCC2)cs1 |  | inconclusive: 5.62 µM [rising, partial curve]
COc1ccccc1N(CC(=O)NC1CCCCC1)C(=O)CCC(=O)Nc1nccs1 |  | inconclusive: 17.8 µM [falling, partial curve]
CCOc1ccc2nc(NC(=O)c3ccc(OC)c(S(=O)(=O)N4CCOCC4)c3)sc2c1 |  | inconclusive: 20.6 µM [cytotoxic, partial curve]
CNC(=O)c1ccc(CN(C)CC(=O)Nc2ccccc2C(=O)NC2CC2)cc1 | inactive: -0.274% | 
O=C(CCCN1C(=O)/C(=C/c2cccs2)SC1=S)Nc1ccc(O)c(C(=O)O)c1 |  | inconclusive: 15.8 µM [falling, partial curve]
COCCn1c(=N)c(S(=O)(=O)c2ccc(F)cc2)cc2c(=O)n3cccc(C)c3nc21 | inactive: -1.43% | 
N#Cc1ccccc1NC(=O)C(=O)NCCc1csc(-c2ccc(F)cc2)n1 | inconclusive: -0.292% | 
CCC1=Nc2cc(C(=O)NCc3ccco3)ccc2Sc2ccc(Cl)cc21 | inconclusive: -2.23% | 
O=C(O)c1cc(Sc2ccc(Br)cc2)nc2ccccc12 |  | inconclusive: 35.5 µM [falling, single point]
COc1cc(CC(=O)Nc2ccc(Cl)c(C(F)(F)F)c2)cc(OC)c1OC | inconclusive: -19.6% | 
COc1cccc(NC(=O)CN(C)C(=O)c2ccc(-n3cncn3)c([N+](=O)[O-])c2)c1 | inactive: -0.371% | 
COc1ccc(CC(=O)Nc2nc(-c3ccc(OC)c(OC)c3)cs2)cc1OC | inconclusive: -16.3% | 

Entries from the list above that have bromine, in the order listed:
SMILES | activity change, negative = inhibition | Potency
O=C(NNC(=S)NCc1ccco1)c1ccccc1Br | inactive: 2.32% | 
O=C(O)c1cc(Sc2ccc(Br)cc2)nc2ccccc12 |  | inconclusive: 35.5 µM [falling, single point]
